These are yes or no findings as the source states them, for the method shown. Binding seen in cells or lysates may run through a third protein. Some binding calls cover weakened binding; strength is not graded here.

Protein sequences, listed by entry. Tags and fused reporters are not part of them.
UniProt Q8R4B8: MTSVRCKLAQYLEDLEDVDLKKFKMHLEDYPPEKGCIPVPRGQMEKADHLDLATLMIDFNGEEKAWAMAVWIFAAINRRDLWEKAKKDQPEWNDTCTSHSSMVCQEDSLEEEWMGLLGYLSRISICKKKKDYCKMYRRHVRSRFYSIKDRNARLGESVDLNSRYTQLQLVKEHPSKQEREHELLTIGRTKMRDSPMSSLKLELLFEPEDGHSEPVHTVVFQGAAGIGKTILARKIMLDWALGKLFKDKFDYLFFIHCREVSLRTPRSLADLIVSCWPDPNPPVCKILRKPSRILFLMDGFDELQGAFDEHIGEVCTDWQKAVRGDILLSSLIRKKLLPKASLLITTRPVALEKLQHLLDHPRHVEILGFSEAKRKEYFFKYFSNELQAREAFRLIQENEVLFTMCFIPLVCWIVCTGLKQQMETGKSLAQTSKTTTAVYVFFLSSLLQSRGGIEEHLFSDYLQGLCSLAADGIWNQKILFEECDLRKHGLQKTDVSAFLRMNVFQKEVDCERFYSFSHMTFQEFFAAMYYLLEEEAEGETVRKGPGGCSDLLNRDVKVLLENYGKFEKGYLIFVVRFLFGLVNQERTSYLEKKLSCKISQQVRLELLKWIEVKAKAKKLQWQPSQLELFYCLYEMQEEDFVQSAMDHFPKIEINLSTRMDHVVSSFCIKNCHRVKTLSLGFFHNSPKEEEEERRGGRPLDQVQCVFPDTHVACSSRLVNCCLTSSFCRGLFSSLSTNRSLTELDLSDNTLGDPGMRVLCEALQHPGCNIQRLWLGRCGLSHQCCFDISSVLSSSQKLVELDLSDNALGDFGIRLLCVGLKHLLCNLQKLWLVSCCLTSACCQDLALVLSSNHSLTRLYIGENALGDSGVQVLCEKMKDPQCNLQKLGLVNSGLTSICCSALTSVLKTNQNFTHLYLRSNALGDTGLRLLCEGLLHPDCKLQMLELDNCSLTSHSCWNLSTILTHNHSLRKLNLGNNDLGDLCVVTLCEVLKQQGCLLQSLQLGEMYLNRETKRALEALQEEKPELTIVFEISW

In publication PMC5980993 one finds binding data, which are given here for 2 molecules.

The target in assay [1] is T1, Triggering receptors expressed on myeloid cells 2 (mouse (endogenous in BMDMs and corneas of C57BL/6 mice)) (UniProt Q99NH8).
T1 sequence: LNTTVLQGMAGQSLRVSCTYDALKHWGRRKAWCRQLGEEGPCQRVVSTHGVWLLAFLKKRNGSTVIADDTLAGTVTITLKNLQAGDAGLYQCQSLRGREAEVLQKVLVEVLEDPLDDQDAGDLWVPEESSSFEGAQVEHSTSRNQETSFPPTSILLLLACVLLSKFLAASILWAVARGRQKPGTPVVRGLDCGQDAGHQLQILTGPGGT
Kind of assay: co-IP; endogenous proteins; lysate (Pierce IP lysis buffer) of pooled uninfected and P. aeruginosa-infected corneas of WT C57BL/6 mice, 5 days after infection; anti-mouse TREM2 antibody and protein A overnight at 4°C; immunoblot with anti-TREM2, anti-NLRP3, anti-caspase-1. (In general: In western blotting, separated proteins are transferred to a membrane and probed.)

Assay [2] concerns the target T1, Triggering receptors expressed on myeloid cells 2 (mouse (endogenous in BMDMs and corneas of C57BL/6 mice)). Nature of the assay: co-IP; endogenous proteins; lysate (Pierce IP lysis buffer) of BMDMs from WT C57BL/6 mice treated with HK-PA (MOI 5, 6 h) or stimulated with nigericin; anti-mouse TREM2 antibody and protein A overnight at 4°C; immunoblot with anti-TREM2, anti-NLRP3, anti-caspase-1.

In the case of NLRP3 (from UniProt Q8R4B8 1-1033), the binding entry in assay [1] and in assay [2] was “binds” in each case.

B1: caspase-1 (enzyme, UniProt P29452 1-402)
chain: MADKILRAKRKQFINSVSIGTINGLLDELLEKRVLNQEEMDKIKLANITAMDKARDLCDHVSKKGPQASQIFITYICNEDCYLAGILELQSAPSAETFVATEDSKGGHPSSSETKEEQNKEDGTFPGLTGTLKFCPLEKAQKLWKENPSEIYPIMNTTTRTRLALIICNTEFQHLSPRVGAQVDLREMKLLLEDLGYTVKVKENLTALEMVKEVKEFAACPEHKTSDSTFLVFMSHGIQEGICGTTYSNEVSDILKVDTIFQMMNTLKCPSLKDKPKVIIIQACRGEKQGVVLLKDSVRDSEEDFLTDAIFEDDGIKKAHIEKDFIAFCSSTPDNVSWRHPVRGSLFIESLIKHMKEYAWSCDLEDIFRKVRFSFEQPEFRLQMPTADRVTLTKRFYLFPGH
Regarding B1, the binding result in assay [1] and in assay [2] was “binds” in each case.
